Assay: general procedure: Fmoc solid-phase peptide synthesis; Wang resin (Applied Biosystems), 0.5 mmol/g

Substance | step yield (late stage modification step) | isolated yield (whole synthesis, on serine resin loading reported by manufacturer, scale of the general procedure approximately 1 mmol)
AHX-DIREK, CYCLIC BY VIRTUE OF A LACTAM BRIDGE | 45% | –
BIO-LRELS | – | 29%

From patent US20060275213 (published 2006)
